This assay deals with T1, Flag-FSP1 (Ferroptosis Suppressor Protein 1) (human) (UniProt Q9BRQ8).
T1 sequence: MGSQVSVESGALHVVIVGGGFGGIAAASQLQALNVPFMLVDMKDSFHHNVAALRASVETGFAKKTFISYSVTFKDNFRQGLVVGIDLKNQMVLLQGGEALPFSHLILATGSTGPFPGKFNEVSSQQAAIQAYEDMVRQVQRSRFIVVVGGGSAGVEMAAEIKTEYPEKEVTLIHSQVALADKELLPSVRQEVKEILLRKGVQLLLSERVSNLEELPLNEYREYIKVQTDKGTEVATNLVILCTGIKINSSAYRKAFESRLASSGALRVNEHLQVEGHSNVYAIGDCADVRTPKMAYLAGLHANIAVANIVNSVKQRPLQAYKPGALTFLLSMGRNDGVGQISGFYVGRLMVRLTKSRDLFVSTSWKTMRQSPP
As to the kind of experiment: affinity purification with mass spectrometry; immunoprecipitation of Flag-FSP1 from HEK293T cells stably expressing it, mass spectrometry of the immunoprecipitate.

The chains behind the UniProt entries cited, without tags or fusion partners.
UniProt P19474: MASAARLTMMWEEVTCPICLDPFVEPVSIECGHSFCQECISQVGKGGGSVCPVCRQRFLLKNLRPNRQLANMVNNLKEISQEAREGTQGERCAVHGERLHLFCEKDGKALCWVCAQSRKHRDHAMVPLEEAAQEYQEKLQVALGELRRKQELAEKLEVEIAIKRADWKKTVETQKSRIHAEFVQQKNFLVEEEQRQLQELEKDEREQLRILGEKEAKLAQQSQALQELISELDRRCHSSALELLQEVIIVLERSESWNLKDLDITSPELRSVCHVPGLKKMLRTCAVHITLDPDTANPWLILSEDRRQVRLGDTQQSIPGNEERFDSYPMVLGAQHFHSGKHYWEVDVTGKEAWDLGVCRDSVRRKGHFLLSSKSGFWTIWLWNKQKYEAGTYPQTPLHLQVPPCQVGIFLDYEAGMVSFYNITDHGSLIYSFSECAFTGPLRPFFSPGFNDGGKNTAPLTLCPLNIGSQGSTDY

No constants are given. Whether binding was seen depends on the method and setting. In cells and extracts the contact can be indirect. Here binding means that the protein was enriched with, or labelled near, the bait; the list need not be complete. Tags and fused reporters may be left off the sequences shown.

In PMC10582465 one finds binding data, which are given here for one substance.

For the substance “TRIM21 (Tripartite Motif-Containing Protein 21), endogenous in HEK293T (from UniProt P19474 1-475)”, the binding result was “binds”.
